Values quoted from earlier work as cited in patent publication US20020165286A1, “Dermal anti-inflammatory composition” (priority 2000, published 2002).
At least one structure is not confirmed: it was looked up by name or label, or the drawing left a doubt.

Key:
[1] = topical administration; cited from earlier work
[2] = topical administration; cited from earlier work; remark: listed apart in the source

CCC[C@@H]1C[C@@H](C(=O)N[C@@H]([C@H]2O[C@H](SC)[C@H](O)[C@@H](O)[C@H]2O)[C@H](C)Cl)N(C)C1 [Clindamycin]
Anti-inflam. [1]: Maybe
Comedolytic [2]: No
